The other results are listed elsewhere or left out. Further columns of the screen follow, without active or inactive calls. Most of these compounds were active or inconclusive in the main read-out, so they are no random draw. Words in brackets tell the shape of the fitted curve; partial curves, single points and poor fits give uncertain potencies.
Assay: qHTS Assay for Modulators of Lamin A Splicing
Details: HeLa LMNA splicing GFP/RFP minigene ratio, 48 h
Outline: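 S3 HeLa cells stably expressing lamin A-EGFP splicing minigene plus DsRed2, 600 cells/well, 48 h compound exposure at 37C. Laser-scanning cytometry; analysed as GFP (500-530 nm)/RFP (575-640 nm) total intensity ratio; 0.5% DMSO vehicle.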

[1] = measured here: GFP splicing reporter channel
[2] = measured here: RFP viability control channel

With `CCOc1ccc(OCC)c(NC(=O)CN2CCN(c3cccc(C)c3)CC2)c1` the AC50 [1] was 12.6 µM [rising, single point] and the AC50 [2] was 12.6 µM [rising, partial curve].

In the case of `Cc1nc2c(C(=O)N3CCN(c4ccccn4)CC3)cnn2c(C)c1Cc1cccc(Cl)c1`, the AC50 [1] is reported as 35.5 µM [rising, single point] and the AC50 [2] is reported as 35.5 µM [rising, single point].

With `CCN(CC(=O)Nc1ccccc1OC)CC(=O)Nc1ccccc1C(F)(F)F` the AC50 [2] was 11.2 µM [rising, partial curve, poor fit].

With `Cc1cc(=O)[nH]c(N/N=C/c2ccccn2)n1` the AC50 [2] was 3.98 µM [rising, full curve].

In the case of `CCOC(=O)c1ccccc1NC(=O)c1n[nH]c(=O)c2ccccc12`, the AC50 [1] is reported as 14.1 µM [rising, single point] and the AC50 [2] is reported as 12.6 µM [rising, partial curve].

With `C/C(=N\NC(=S)NCc1ccccc1)c1ccccc1` the AC50 [1] was 14.1 µM [rising, single point] and the AC50 [2] was 31.6 µM [rising, single point].

With `O=c1c(-c2ccc(Cl)cc2)nc2cnc(N3CCNCC3)nc2n1Cc1cccs1` the AC50 [1] was 17.8 µM [falling, partial curve] and the AC50 [2] was 12.6 µM [falling, partial curve].

In the case of `COC(=O)c1ccc(Cn2cnc3nc4c(cc3c2=O)CCCC4)cc1`, the AC50 [1] is reported as 0.891 µM [rising, full curve, poor fit] and the AC50 [2] is reported as 0.708 µM [rising, full curve].

With `CC(=O)Nc1ccc(NC(=O)Cc2ccc(S(=O)(=O)N3CCCCC3)s2)cc1` the AC50 [2] was 35.5 µM [rising, single point].

In the case of `Cc1ccc(N(CC(=O)Nc2ccccc2-c2ccccc2)S(=O)(=O)c2ccccc2)c(C)c1`, the AC50 [2] is reported as 22.4 µM [rising, partial curve].

In the case of `CC1CC(C)CN(CCOCCSc2ccccc2)C1` (centres undefined), the AC50 [1] is reported as 0.251 µM [falling, full curve, poor fit].

For `C=CCn1c(SCC(=O)Nc2cc(C)c(Cl)cc2OC)nnc1-c1ccco1`, the AC50 [2] was 12.6 µM [rising, single point].

For `COc1ccccc1Oc1ccc(-c2cnc3ccccc3n2)cc1[N+](=O)[O-]`, the AC50 [2] was 0.0447 µM [falling, full curve].

In the case of `COc1ccc(/C=N/NC(=O)c2cccc(Br)c2)cc1CSc1ccccn1`, the AC50 [2] is reported as 11.2 µM [rising, single point].

For `Cc1ccc(C)c(CN2C(=O)C3(OCCCO3)c3ccccc32)c1`, the AC50 [1] was 35.5 µM [rising, single point].

In the case of `CCCc1[nH]nc2c1C(/C(C)=C/c1ccccc1)C(C#N)=C(N)O2` (centres undefined), the AC50 [1] is reported as 10 µM [rising, partial curve] and the AC50 [2] is reported as 12.6 µM [rising, single point].

In the case of `CCOC(=O)N1CCN(C(=O)CN(Cc2ccc(Cl)cc2)S(=O)(=O)c2ccccc2)CC1`, the AC50 [2] is reported as 20 µM [rising, single point].

For `CN(C)S(=O)(=O)c1cccc(NC(=O)c2ccc(OC(F)(F)F)cc2)c1`, the AC50 [2] was 12.6 µM [rising, partial curve].

For `CC1CN(c2nc3c(c(=O)n(Cc4ccc(Cl)cc4)c(=O)n3C)n2C)CC(C)O1` (centres undefined), the AC50 [1] was 14.1 µM [rising, single point] and the AC50 [2] was 22.4 µM [rising, single point].

For `CCOC(=O)c1oc2ccc(Br)cc2c1CSc1nnc(C)s1`, the AC50 [1] was 12.6 µM [rising, single point] and the AC50 [2] was 14.1 µM [rising, single point].

With `O=C(CN1C(=O)S/C(=C\c2ccc(Cl)cc2)C1=O)NNC(=O)c1ccccc1O` the AC50 [1] was 35.5 µM [rising, single point] and the AC50 [2] was 35.5 µM [rising, single point].

For `O=C(COc1ccccc1)OCc1cc(=O)n2nc(C3CC3)sc2n1`, the AC50 [2] was 0.0355 µM [falling, full curve, poor fit].

In the case of `O=C(N/N=C/c1ccccn1)c1c[nH]c2ccccc12`, the AC50 [1] is reported as 25.1 µM [falling, single point] and the AC50 [2] is reported as 0.00355 µM [falling, full curve, poor fit].

For `CCC1CN(C(=O)N2CCC(C(=O)NCc3cccc(OC)c3OC)CC2)c2cc(C)ccc2O1` (centres undefined), the AC50 [2] was 12.6 µM [rising, single point].

In the case of `O=C(Nc1cccc(Cl)c1)Nc1cc(S(=O)(=O)N2CCOCC2)ccc1N1CCCC1`, the AC50 [1] is reported as 20 µM [rising, single point] and the AC50 [2] is reported as 20 µM [rising, partial curve].

For `COc1ccc(C(=O)NNC(=O)CN2CCN(c3nc(-c4ccccc4)cs3)CC2)cc1`, the AC50 [2] was 31.6 µM [rising, single point].

In the case of `CC1CCN(S(=O)(=O)c2cccc(C(=O)Nc3nccs3)c2)CC1`, the AC50 [1] is reported as 28.2 µM [rising, single point] and the AC50 [2] is reported as 22.4 µM [rising, single point].

With `Cc1cc(OCC(=O)Nc2ccncc2)ccc1[N+](=O)[O-]` the AC50 [2] was 35.5 µM [rising, single point].

With `C=CCn1c(N2CCCCCC2)nc2c1c(=O)n(C)c(=O)n2C` the AC50 [1] was 12.6 µM [rising, single point] and the AC50 [2] was 17.8 µM [rising, single point].

For `Fc1ccc(Br)cc1C1C=C(c2cccnc2)Nc2ncnn21` (centres undefined), the AC50 [2] was 14.1 µM [rising, partial curve].

In the case of `Cc1ccccc1NC(=O)CSc1nc2ccc(NC(=O)c3cccs3)cc2s1`, the AC50 [1] is reported as 35.5 µM [falling, single point] and the AC50 [2] is reported as 35.5 µM [falling, single point].

In the case of `Oc1[nH]c2ccccc2c1N=Nc1ccccc1`, the AC50 [1] is reported as 3.16 µM [falling, partial curve] and the AC50 [2] is reported as 7.94 µM [falling, partial curve].

With `CN1CCN(/N=C/c2ccc(N(c3ccccc3)c3ccccc3)cc2)CC1` the AC50 [1] was 35.5 µM [falling, single point] and the AC50 [2] was 3.16 µM [falling, single point].

In the case of `CCOc1ccc(S(=O)(=O)Nc2cccc(-c3ccc(OCC)nn3)c2)cc1`, the AC50 [1] is reported as 0.00891 µM [falling, full curve] and the AC50 [2] is reported as 0.00631 µM [falling, full curve, poor fit].

In the case of `Cc1cccc(NC(=O)COC(=O)CCCC2=NS(=O)(=O)c3ccccc3N2)c1`, the AC50 [2] is reported as 0.02 µM [falling, full curve].

For `O=C(Nc1ccc(S(=O)(=O)N2CCCCC2c2cccnc2)cc1)c1ccc(Br)cc1` (centres undefined), the AC50 [1] was 0.355 µM [falling, full curve].

For `COc1ccccc1N1CCN(CC(O)COc2ccc(S(=O)(=O)N3CCOCC3)cc2)CC1` (centres undefined), the AC50 [2] was 0.794 µM [rising, partial curve, poor fit].

For `Cc1ccc(-n2cc(C(=O)Oc3cccc(C)c3)c3ccccc3c2=O)cc1`, the AC50 [1] was 35.5 µM [rising, single point].

For `Cc1c(C(=O)C(=O)NCCC2=CCCCC2)c2ccccc2n1C`, the AC50 [1] was 28.2 µM [rising, single point] and the AC50 [2] was 28.2 µM [rising, single point].

In the case of `O=C(Nc1ccc2c(c1)C(=O)NC2=O)c1ccc2ncsc2c1`, the AC50 [1] is reported as 0.0631 µM [falling, full curve, poor fit] and the AC50 [2] is reported as 35.5 µM [falling, single point].

In the case of `COC(=O)C(C(C)=O)C1c2ccccc2C=C(C)N1C(=O)OC` (centres undefined), the AC50 [2] is reported as 0.631 µM [falling, full curve, poor fit].

For `CC(C)(C)OC(=O)N1CCC(c2c(C(=O)NC3CCN(Cc4ccccc4)CC3)cnn2-c2ccc(F)cc2F)CC1`, the AC50 [1] was 20 µM [falling, single point] and the AC50 [2] was 0.0631 µM [falling, full curve, poor fit].

With `COc1ccc(Br)cc1/C=N/NC(=O)CNC(=O)/C=C/c1ccccc1` the AC50 [2] was 5.62 µM [rising, single point].

With `COc1cc(-c2nc3ccc4ccccc4c3c3c2CCC3)ccc1O` the AC50 [2] was 7.94 µM [rising, partial curve].

With `Cc1ccc(NC(=O)COC(=O)C(NS(=O)(=O)c2ccc(Cl)cc2)C(C)O)cc1C` (centres undefined) the AC50 [2] was 35.5 µM [rising, single point].

In the case of `Cc1ccc(-c2noc(CCC(=O)N3CCCc4ccccc43)n2)cc1`, the AC50 [2] is reported as 14.1 µM [rising, single point].

For `O=C(Nc1nc(-c2ccncc2)cs1)C1c2ccccc2Oc2ccccc21`, the AC50 [1] was 12.6 µM [rising, partial curve] and the AC50 [2] was 17.8 µM [rising, single point].

For `OCCC1CN(Cc2c(O)ccc3ccccc23)CCN1CCc1ccccc1` (centres undefined), the AC50 [1] was 15.8 µM [falling, single point].

For `COc1ccc(Nc2nnc(-c3ccc(O)cc3)c3ccccc23)cc1`, the AC50 [1] was 35.5 µM [rising, partial curve, poor fit] and the AC50 [2] was 35.5 µM [rising, partial curve, poor fit].

For `O=S(=O)(Nc1nnc(-c2ccccc2)s1)c1ccc(Cl)cc1`, the AC50 [1] was 11.2 µM [rising, partial curve] and the AC50 [2] was 14.1 µM [rising, single point].

For `COc1cc(/C=N/Nc2nc3ccccc3[nH]2)cc(Br)c1OCC(=O)N(C)C`, the AC50 [1] was 20 µM [falling, partial curve, poor fit].

For `C=CCC1(NCc2ccco2)CCN(CC)CC1`, the AC50 [2] was 0.562 µM [falling, full curve, poor fit].

In the case of `Cc1ccc(C(C)C)c(OC(=O)/C=C/c2ccccc2)c1`, the AC50 [2] is reported as 35.5 µM [rising, single point].

In the case of `CC(=O)c1c(Nc2ccccc2)sc(C(=O)c2ccccc2)c1C`, the AC50 [1] is reported as 12.6 µM [rising, single point] and the AC50 [2] is reported as 25.1 µM [rising, single point].

Source: PubChem BioAssay AID1487 (National Center for Advancing Translational Sciences (NCATS), 2009)
